Reference: article PMC9532395
No constants are given. Whether binding was seen depends on the method and setting. In cells and extracts the contact can be indirect. Here binding means that the protein was enriched with, or labelled near, the bait; the list need not be complete. Tags and fused reporters may be left off the sequences shown.

Chains of the proteins cited; added tags and fusions are not shown.
UniProt Q07812: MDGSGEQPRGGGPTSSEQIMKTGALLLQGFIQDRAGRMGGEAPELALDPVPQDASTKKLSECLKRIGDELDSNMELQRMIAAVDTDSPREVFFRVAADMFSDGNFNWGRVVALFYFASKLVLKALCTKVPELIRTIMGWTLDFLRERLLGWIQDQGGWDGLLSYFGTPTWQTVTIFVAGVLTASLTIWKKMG
UniProt O60260: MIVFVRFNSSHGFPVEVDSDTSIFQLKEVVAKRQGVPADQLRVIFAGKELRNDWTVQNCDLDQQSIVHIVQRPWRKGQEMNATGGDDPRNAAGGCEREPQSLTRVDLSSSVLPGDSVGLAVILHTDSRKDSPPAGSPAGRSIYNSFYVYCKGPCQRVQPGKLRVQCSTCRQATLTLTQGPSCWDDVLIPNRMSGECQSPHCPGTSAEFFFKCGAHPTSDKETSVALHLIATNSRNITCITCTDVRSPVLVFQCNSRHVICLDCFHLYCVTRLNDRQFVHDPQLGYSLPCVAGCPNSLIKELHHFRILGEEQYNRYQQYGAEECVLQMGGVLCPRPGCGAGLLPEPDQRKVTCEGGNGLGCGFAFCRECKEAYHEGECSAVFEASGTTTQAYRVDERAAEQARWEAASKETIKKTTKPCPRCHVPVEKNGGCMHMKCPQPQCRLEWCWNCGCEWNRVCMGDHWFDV

Biological target: T1, Flag-CRABP2 (cellular retinoic acid binding protein 2) (UniProt P29373)
T1 sequence: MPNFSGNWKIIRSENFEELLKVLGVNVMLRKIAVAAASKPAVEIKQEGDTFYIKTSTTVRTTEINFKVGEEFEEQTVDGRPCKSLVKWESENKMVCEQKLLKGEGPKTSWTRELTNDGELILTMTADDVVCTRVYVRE
Assay: affinity purification with mass spectrometry; Co-IP from Flag-CRABP2 plasmid-transfected AGS cells, SDS-PAGE, LC/LC-MS of the CRABP2 protein complex

Row | binding | Substance
1 | binds | apoptosis regulator BAX (from UniProt Q07812 1-192)
2 | binds | E3 ubiquitin-protein ligase parkin (from UniProt O60260 1-465)
